Source: PubChem BioAssay AID504444 (National Center for Advancing Translational Sciences (NCATS), 2011)
Values joined by “and” are separate entries in the source; they are usually repeats but may differ in a detail not shown here. Identical values can stand only once. Among all 360,000 compounds or so, about 7,500 (2.1%) were called active. This list was built around the results that the source calls inconclusive (neither active nor inactive); the mix of calls is not that of the screen. Calls come from the whole dose curve; as a rule, active = well fitted inhibition curve with a large enough effect; inconclusive = small, poorly fitted or top-dose-only effect, or effect the other way; inactive = flat fitted curve, though single readings scatter. Potencies beside an inconclusive call are fits to weak or partial responses and may not hold up.

test: Nrf2 qHTS screen for inhibitors; details: A549 ARE-Fluc reporter, luciferase luminescence, 18-24 h; series mostly up to 46 µM; note: nearly all actives have a fitted effect of over 60% in size
Procedure, shortened: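 Nrf2 activity is the BugLite luminescence, read 15 min after reagent at room temperature, following CellTiter-Fluor cytotoxicity readout (30 min, 37C). Compound titrations were applied for 18-24 h to 5000 A549 ARE_Fluc cells/well in 5% FBS OPTI-MEM.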
Potency is the fitted concentration of half-maximal effect.

SMILES	Potency
CN1CCN(C(=S)NC(=O)c2ccc(Cl)cc2)CC1	inconclusive: 23.1 µM [activator, partial curve, poor fit]
C[N+]1(C)CC2=Cc3ccccc3CC2C1 (stereo not given)	inconclusive: 11.6 µM [falling, partial curve, poor fit]
Cc1cc(OCC(=O)Nc2cccc(S(=O)(=O)NC3=NCCCCC3)c2)ccc1Cl	inconclusive: 23.1 µM [falling, single point]
COc1cccc(NS(=O)(=O)c2csc(C(N)=O)c2)c1	inconclusive: 18.4 µM [falling, single point]
COc1cc(OC)cc(C(=O)Nc2nc(CC(=O)NCCc3ccccc3)cs2)c1	inconclusive: 6.51 µM [activator, partial curve, poor fit]
Cc1ccc(S(=O)(=O)c2nnn3c2nc(Nc2ccc(C(C)C)cc2)c2sccc23)cc1C	active: 20.6 µM
O=C(Nc1nccs1)c1ccc(Br)o1	inconclusive: 1.03 µM [activator, full curve, poor fit]
CCCCC(=O)NC(=S)Nc1cccc(C(=O)O)c1	inconclusive: 18.4 µM [activator, single point]
CC1CC(C)CN(C(=O)C(C)N(C)CC(=O)Nc2ccc(Cl)cc2)C1 (stereo not given)	inconclusive: 5.8 µM [activator, full curve, poor fit]
COc1ccccc1C(=O)Nc1nc2ccccc2s1	active: 6.51 µM
COc1ccc2c(C)c(CC(=O)N3CCN(C(=O)C4COc5ccccc5O4)CC3)c(=O)oc2c1 (stereo not given)	active: 23.1 µM
Cc1ccc(NC(=O)CSCC(=O)OC(C)C(=O)Nc2ccccc2C)cc1 (stereo not given)	inactive
N/C(Cc1cccs1)=N\OC(=O)COc1ccccc1	inconclusive: 11.6 µM [activator, partial curve, poor fit]
O=C(CCCn1c(=O)[nH]c2cc(Cl)ccc2c1=O)NCCCN1CCCC1=O	inconclusive: 25.9 µM [activator, partial curve, poor fit]
COc1ccc(/C(C)=N/NC(=O)c2nnn(-c3nonc3N)c2CN(C)c2ccccc2)cc1	active: 16.4 µM
CC(C)(C)C(=O)N1CCN(c2ccc(NC(=O)c3ccc4c(c3)OCCO4)cc2)CC1	inconclusive: 11.6 µM [falling, partial curve, poor fit]
Cc1ccc(C(=O)Nc2ccc(C(F)(F)F)n(C)c2=O)cc1	inconclusive: 2.06 µM [activator, full curve]
CCCC[C@@H]1CCCO[C@@](C(=O)NCC2CC2)(C(F)(F)F)C1	inactive
CCc1nc(N2CCOCC2)c(C#N)c2c1COC(C)(C)C2	inconclusive: 4.11 µM [activator, full curve, poor fit]
O=C(NCc1ccccc1)c1ccccc1C(=O)c1ncc[nH]1	inconclusive: 20.6 µM [activator, partial curve, poor fit]
CCOc1ccc(Nc2nc(Cc3nnc(SCC(=O)c4ccc(C)cc4)o3)cs2)cc1	inconclusive: 29.1 µM [falling, single point]
C#CCN(C[C@@H](CC(C)C)NC(=O)OC(C)(C)C)S(=O)(=O)c1ccc(Br)cc1F	inconclusive: 32.6 µM [falling, single point]

SMILES	Potency
C[C@H](CO)N1C[C@H](C)[C@@H](CN(C)C(=O)NC2CCCCC2)Oc2c(NS(=O)(=O)c3ccccc3)cccc2C1=O	inconclusive: 4.11 µM [activator, full curve, poor fit]
CN(C)/C=C/c1onc(-c2c(Cl)cccc2Cl)c1C#N	inconclusive: 29.1 µM [falling, single point]
COc1ccccc1NC(=O)CSc1ncc2c(n1)-c1cc(Cl)ccc1N(C)S2(=O)=O	inconclusive: 32.6 µM [falling, single point]
CCN1/C(=C/c2ccc3ccc(C)cc3[n+]2CC)Sc2ccccc21	active: 13 µM
CCOC(=O)c1c(C)nn(-c2ccc(NC(=O)c3cccs3)cc2)c1C	inconclusive: 23.1 µM [falling, single point]
Cc1ccc(SCCN2CCN(C)CCC2=O)cc1	inactive and inconclusive: 9.2 µM [activator, partial curve, poor fit]
CC(=O)N1CCCc2cc(S(=O)(=O)N3CCCC(C(=O)NCc4ccc(Cl)cc4)C3)ccc21 (stereo not given)	inconclusive: 32.6 µM [falling, partial curve, poor fit]
Clc1ccc(C2=NNC(=NCC3CCCO3)SC2)cc1 (stereo not given)	inconclusive: 29.1 µM [activator, single point]
Cc1cc(C)c(CN2CCN(C(=O)Cn3cnc(C(=O)Nc4ccc(C)c(C)c4)n3)CC2)c(C)c1	inconclusive: 29.1 µM [falling, single point]
O=C(Nc1sc2c(c1C(=O)c1ccccc1)CCCC2)c1cccnc1	inactive
Cc1c(/C=N/O)c2ccccn2c1C(=O)c1ccc(F)cc1	inconclusive: 20.6 µM [falling, partial curve, poor fit]
CCOC(=O)N1CCN(c2nnc(-c3ccccc3)c3ccccc23)CC1	inconclusive: 16.4 µM [falling, single point]
O=S(=O)(c1ccccc1F)N1CCN(C(=S)NCc2ccccc2)CC1	inactive
CN(C)c1ccc(CNc2nc(-c3ccco3)nn2C(=O)c2cccc([N+](=O)[O-])c2)cc1	inconclusive: 8.2 µM [activator, partial curve]
COc1ccccc1NS(=O)(=O)c1cccc(NC(=O)c2ccc3ccccc3n2)c1	inconclusive: 16.4 µM [falling, single point]
O=C(CSc1nc2[nH]c(=O)cc(O)c2s1)Nc1nccs1	inactive
CC(=O)OCC(=O)c1ccc2ccn(C(C)=O)c2c1	inconclusive: 5.17 µM [falling, partial curve, poor fit]
O=C1C2C3c4ccccc4C(c4ccccc43)C2C(=O)N1/N=C/c1cccc(O)c1 (stereo not given)	inconclusive: 29.1 µM [falling, single point]
Cc1ccc(-n2c(C)cc(/C=N/NC(=O)c3ccncc3)c2C)c(C)c1	inconclusive: 32.6 µM [falling, single point]
COCCNC(=O)COC(=O)/C=C/c1c(C)nn(Cc2ccc(Cl)cc2Cl)c1Cl	inconclusive: 29.1 µM [falling, single point]
Cc1cc(C)n2nc(C(=O)OCC(=O)NC3CCCCC3)nc2n1	inconclusive: 4.61 µM [activator, partial curve, poor fit]
COc1ccc(N(C(=O)c2snc(C(N)=O)c2N)C(C(=O)NC2CCCC2)c2cccs2)c(OC)c1 (stereo not given)	inconclusive: 23.1 µM [falling, single point]

SMILES	Potency
COc1ccc(-c2nn(-c3ccccc3)cc2/C=C(\CC(=O)O)c2nc3ccccc3s2)cc1OC	inconclusive: 32.6 µM [falling, single point]
N/C(=N\OCc1ccccc1)c1nonc1N	inactive
Cc1ccc(OCC(=O)Nc2ccc3nc(SCC(=O)N4CCCC4)sc3c2)cc1C	inconclusive: 20.6 µM [falling, single point]
CCCC(=O)NC(c1ccc(N(C)C)cc1)c1ccc2cccnc2c1O (stereo not given)	inconclusive: 8.2 µM [falling, partial curve]
O=C1N(Cc2ccccc2)CC2(Br)COCOC12O (stereo not given)	inactive
O=C(OC(C(=O)Nc1ccc([N+](=O)[O-])cc1Br)c1ccccc1)c1ccccc1 (stereo not given)	active: 23.1 µM
Cc1ccc(C(=O)NC(=C(Cl)Cl)S(=O)(=O)c2ccc(Cl)cc2)cc1	inconclusive: 29.1 µM [falling, single point]
CCC1CN(C(=O)NCc2ccc(F)cc2)c2ccccc2O1 (stereo not given)	inconclusive: 32.6 µM [falling, single point]
CCn1c(=O)cc(SCC(=O)Nc2ccc(C)cn2)c2ccccc21	inconclusive: 20.6 µM [falling, single point]
O=S(=O)(N/N=C1/CC(c2ccccc2)Oc2ccccc21)c1ccccc1 (stereo not given)	inconclusive: 6.51 µM [falling, partial curve, poor fit]
Cc1cc(Br)cc(Cl)c1OCC(=O)NC(=O)NCc1ccccc1	inconclusive: 20.6 µM [falling, partial curve, poor fit]
CCCc1[nH][nH]c(=O)c1C(c1ccc(Cl)cc1)C(C#N)C#N (stereo not given)	inactive
CC(=O)Nc1cc(O)c2nonc2c1O	active: 20.6 µM
COc1ccc(CCNc2ccc(S(N)(=O)=O)cn2)cc1	inconclusive: 0.731 µM [activator, full curve, poor fit]
O=C1Nc2ccccc2C1=Nc1cccc(Cl)c1	inconclusive: 3.66 µM [falling, single point]
Cn1c(=O)c(/C=C/c2ccccc2)nc2ccccc21	inconclusive: 18.4 µM [activator, partial curve]
Cc1ccc(NC(=O)c2ccc(Oc3ncccn3)cc2)cc1	inconclusive: 4.11 µM [activator, full curve, poor fit]
CCOc1ccc2cc(S(=O)(=O)N3CCCCC3)ccc2c1	inconclusive: 29.1 µM [falling, single point]
Cc1onc(-c2ccccc2Cl)c1C(=O)N1CCCc2ccccc21	inconclusive: 25.9 µM [falling, partial curve, poor fit]
Cc1ccc(NC(=O)c2cnccn2)c(Br)c1	inconclusive: 11.6 µM [activator, partial curve]
O=C(Cn1cnc2c(cnn2-c2ccccc2)c1=O)N1CCCc2ccccc21	inactive
